Measurements published in patent US12458630B2, “Combination therapy for cancer” (The Regents of the University of California, priority 2020, dated 2025).
At least one compound was matched to its structure with a doubt left.

Key:
BxPC3 cells = experiment: TMR-DEX macropinosome uptake assay; assay type: cell-based, human; settings: BxPC3 cells overexpressing KEAP1-resistant NRF2(E79Q), 100 nM trametinib
MP-related proteins = experiment: Immunoblot of MP-related proteins in BxPC3 cells; assay type: cell-based, human; settings: BxPC3 cells overexpressing NRF2(E79Q), 100 nM trametinib
Method: Immunoblot and immunoprecipitation. Cells were harvested and lysed in RIPA buffer (50 mM Tris-HCl, pH 7.4, 150 mM NaCl, 1% Triton X-100, 1% Na deoxycholate, 0.1% SDS, 1 mM EDTA) supplemented with complete protease inhibitor cocktail. Proteins were resolved on SDS-polyacrylamide gels, and then transferred to a polyvinylidene difluoride membrane. After blocking with 5% (w/v) fat free milk, the membrane was stained with the corresponding primary antibodies followed by incubation with the appropriate secondary HRP-conjugated antibodies, and development with ECL. Immunoreactive bands were detected by automatic X-ray film processor or KwikQuant Imager.

SMILES: CC(=O)Nc1cccc(-n2c(=O)n(C3CC3)c(=O)c3c(Nc4ccc(I)cc4F)n(C)c(=O)c(C)c32)c1 [trametinib]
- MP activity (BxPC3 cells): Neither KRAS KD nor trametinib inhibited MP activity and protein expression
- MP-related protein expression (MP-related proteins): Neither KRAS KD nor trametinib inhibited MP activity and protein expression
